# According to the supplement of paper PMC6411743:
# By UniProt entry, the sequences of proteins in these tests, tags left out. Where a name states a change or a piece, a line headed by the entry shows the natural chain unless it says otherwise.
# UniProt O95251, whole entry: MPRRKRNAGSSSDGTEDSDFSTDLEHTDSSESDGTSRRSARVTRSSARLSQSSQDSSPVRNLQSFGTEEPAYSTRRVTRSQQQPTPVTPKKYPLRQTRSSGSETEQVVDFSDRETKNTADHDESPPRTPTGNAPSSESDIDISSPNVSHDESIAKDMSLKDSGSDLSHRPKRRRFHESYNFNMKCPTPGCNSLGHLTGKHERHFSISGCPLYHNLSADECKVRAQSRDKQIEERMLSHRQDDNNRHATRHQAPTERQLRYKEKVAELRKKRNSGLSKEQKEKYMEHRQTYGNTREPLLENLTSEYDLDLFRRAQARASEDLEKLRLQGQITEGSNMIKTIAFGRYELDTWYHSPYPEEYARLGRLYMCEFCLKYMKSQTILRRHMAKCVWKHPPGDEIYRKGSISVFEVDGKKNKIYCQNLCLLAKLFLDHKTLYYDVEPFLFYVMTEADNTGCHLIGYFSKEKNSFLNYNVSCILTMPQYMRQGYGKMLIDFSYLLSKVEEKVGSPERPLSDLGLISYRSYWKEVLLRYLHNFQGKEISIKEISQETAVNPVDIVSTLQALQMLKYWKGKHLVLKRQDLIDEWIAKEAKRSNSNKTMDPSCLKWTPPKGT
# UniProt O95219: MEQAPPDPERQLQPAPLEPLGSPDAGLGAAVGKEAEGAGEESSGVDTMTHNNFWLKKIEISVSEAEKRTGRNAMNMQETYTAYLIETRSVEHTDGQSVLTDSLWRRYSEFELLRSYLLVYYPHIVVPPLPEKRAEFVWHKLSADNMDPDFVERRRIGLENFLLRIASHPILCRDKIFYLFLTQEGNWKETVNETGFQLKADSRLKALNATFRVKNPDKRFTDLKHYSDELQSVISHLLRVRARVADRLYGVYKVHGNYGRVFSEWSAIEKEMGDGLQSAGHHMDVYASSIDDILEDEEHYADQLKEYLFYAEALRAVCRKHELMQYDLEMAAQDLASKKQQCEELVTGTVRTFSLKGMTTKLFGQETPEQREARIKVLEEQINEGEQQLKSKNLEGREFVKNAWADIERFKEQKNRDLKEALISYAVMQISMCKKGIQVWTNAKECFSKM
# UniProt O60749: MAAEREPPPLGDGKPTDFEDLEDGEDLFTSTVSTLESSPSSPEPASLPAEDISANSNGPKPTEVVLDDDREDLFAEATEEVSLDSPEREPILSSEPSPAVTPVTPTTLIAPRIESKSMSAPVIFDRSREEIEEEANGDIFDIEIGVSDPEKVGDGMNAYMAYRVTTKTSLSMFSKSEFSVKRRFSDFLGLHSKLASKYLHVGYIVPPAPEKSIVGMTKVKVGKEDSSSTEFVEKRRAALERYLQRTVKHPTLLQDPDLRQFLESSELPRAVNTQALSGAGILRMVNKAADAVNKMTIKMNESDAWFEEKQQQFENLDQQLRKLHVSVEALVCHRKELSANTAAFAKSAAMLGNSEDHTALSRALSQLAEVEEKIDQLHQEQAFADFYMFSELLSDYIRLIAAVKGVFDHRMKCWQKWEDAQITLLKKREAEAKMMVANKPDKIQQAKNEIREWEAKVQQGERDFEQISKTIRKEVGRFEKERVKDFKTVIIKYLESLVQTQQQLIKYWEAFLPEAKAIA
# UniProt O60287: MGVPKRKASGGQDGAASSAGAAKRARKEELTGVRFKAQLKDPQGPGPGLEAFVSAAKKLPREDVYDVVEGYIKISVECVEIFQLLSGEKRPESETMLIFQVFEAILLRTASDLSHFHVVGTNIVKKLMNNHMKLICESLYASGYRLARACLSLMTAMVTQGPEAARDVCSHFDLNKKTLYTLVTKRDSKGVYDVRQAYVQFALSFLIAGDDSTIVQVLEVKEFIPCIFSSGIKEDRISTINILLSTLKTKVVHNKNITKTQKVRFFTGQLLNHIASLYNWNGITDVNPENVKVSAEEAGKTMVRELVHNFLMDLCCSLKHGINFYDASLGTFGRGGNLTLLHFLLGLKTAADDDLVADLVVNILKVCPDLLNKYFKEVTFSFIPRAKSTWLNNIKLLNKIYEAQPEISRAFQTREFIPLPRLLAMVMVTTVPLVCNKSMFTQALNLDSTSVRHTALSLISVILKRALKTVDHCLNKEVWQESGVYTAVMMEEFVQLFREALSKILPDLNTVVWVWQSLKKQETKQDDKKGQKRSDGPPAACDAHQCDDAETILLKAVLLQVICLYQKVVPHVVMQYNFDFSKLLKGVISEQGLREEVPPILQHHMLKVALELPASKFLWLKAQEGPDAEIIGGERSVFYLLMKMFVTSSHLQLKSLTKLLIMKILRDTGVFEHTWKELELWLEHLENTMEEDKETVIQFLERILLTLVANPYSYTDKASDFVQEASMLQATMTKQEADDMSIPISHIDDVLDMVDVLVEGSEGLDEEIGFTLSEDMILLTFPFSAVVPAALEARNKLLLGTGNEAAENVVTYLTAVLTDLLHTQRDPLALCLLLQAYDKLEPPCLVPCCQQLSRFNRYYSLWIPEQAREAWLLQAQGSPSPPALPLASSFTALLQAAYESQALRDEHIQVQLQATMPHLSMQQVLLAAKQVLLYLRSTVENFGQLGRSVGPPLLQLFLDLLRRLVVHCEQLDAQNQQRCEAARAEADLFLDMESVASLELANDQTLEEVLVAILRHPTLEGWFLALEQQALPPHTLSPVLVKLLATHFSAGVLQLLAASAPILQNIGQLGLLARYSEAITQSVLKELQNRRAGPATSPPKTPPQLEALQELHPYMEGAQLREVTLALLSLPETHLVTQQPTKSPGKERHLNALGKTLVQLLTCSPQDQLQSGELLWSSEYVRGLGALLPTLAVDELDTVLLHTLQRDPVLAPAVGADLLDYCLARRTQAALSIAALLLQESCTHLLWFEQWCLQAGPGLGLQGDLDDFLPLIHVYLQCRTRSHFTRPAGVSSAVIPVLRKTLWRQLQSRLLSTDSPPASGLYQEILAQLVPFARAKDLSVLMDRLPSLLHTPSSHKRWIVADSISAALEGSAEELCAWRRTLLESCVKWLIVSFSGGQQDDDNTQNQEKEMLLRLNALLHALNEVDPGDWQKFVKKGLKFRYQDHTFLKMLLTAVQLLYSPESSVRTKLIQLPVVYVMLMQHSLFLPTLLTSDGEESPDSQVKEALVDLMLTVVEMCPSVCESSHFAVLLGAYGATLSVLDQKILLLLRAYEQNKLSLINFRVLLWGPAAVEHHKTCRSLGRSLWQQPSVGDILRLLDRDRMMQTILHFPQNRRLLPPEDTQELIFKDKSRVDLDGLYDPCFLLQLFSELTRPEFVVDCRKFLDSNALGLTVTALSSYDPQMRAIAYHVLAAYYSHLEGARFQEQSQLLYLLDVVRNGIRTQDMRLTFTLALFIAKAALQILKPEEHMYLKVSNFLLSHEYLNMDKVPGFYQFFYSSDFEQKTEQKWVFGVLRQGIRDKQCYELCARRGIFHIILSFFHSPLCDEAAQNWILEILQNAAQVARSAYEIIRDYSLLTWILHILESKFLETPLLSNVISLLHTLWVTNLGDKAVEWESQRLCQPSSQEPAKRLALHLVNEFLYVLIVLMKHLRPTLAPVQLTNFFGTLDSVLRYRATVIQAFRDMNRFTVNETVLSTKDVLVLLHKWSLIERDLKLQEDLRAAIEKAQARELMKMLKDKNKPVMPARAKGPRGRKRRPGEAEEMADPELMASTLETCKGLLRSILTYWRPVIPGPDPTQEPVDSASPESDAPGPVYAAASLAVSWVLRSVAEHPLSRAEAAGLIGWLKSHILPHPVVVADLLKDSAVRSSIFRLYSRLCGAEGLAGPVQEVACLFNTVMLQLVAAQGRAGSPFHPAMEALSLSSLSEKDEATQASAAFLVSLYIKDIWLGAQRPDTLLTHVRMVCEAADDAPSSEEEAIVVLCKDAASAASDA
# UniProt O60711: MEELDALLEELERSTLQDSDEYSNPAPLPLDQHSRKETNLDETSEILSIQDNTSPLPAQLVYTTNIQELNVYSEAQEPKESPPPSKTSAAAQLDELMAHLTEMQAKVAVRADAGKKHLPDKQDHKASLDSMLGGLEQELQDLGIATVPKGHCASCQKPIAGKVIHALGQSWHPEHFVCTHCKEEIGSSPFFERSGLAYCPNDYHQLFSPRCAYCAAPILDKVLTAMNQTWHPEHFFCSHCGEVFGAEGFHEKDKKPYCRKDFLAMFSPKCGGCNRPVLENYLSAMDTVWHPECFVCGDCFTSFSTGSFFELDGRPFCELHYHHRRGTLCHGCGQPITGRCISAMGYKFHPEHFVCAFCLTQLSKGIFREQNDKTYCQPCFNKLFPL
# UniProt O60499: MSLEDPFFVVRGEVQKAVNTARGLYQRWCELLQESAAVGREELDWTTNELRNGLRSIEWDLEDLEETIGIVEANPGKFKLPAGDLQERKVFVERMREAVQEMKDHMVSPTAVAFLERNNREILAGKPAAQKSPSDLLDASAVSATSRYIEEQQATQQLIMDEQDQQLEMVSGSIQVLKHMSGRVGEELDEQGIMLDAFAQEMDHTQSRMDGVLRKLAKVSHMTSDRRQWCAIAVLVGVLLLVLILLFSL
# UniProt O95470: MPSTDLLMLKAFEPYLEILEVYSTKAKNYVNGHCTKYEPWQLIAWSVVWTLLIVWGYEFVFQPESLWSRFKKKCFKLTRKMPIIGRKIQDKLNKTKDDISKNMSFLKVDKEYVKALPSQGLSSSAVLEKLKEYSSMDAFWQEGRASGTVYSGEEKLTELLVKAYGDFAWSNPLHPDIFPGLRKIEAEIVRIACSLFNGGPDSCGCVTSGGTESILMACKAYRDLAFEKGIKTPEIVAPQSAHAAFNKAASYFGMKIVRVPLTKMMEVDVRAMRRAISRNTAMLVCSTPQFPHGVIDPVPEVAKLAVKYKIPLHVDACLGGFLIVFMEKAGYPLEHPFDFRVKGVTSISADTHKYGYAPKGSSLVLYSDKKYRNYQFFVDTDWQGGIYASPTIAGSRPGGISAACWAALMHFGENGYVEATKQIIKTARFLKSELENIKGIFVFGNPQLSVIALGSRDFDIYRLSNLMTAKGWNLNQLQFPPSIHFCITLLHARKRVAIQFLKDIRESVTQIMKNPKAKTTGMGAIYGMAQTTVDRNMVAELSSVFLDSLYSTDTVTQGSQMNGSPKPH
# UniProt O75081: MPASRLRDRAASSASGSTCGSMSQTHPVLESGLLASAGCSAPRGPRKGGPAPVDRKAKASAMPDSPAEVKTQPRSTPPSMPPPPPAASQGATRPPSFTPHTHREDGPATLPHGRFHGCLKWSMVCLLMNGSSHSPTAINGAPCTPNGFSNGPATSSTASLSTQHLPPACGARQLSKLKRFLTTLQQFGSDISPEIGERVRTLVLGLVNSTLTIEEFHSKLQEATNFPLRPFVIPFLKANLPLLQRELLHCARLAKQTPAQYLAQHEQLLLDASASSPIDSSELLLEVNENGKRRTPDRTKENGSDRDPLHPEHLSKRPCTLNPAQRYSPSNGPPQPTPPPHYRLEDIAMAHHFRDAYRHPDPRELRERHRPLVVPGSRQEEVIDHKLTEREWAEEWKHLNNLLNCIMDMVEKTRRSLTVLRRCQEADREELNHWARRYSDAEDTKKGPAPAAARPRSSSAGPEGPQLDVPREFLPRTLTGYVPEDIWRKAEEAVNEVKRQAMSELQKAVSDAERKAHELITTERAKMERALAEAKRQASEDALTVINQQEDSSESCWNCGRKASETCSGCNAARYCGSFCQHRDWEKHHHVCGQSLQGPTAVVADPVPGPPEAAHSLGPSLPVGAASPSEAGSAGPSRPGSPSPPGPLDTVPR
# UniProt O95573: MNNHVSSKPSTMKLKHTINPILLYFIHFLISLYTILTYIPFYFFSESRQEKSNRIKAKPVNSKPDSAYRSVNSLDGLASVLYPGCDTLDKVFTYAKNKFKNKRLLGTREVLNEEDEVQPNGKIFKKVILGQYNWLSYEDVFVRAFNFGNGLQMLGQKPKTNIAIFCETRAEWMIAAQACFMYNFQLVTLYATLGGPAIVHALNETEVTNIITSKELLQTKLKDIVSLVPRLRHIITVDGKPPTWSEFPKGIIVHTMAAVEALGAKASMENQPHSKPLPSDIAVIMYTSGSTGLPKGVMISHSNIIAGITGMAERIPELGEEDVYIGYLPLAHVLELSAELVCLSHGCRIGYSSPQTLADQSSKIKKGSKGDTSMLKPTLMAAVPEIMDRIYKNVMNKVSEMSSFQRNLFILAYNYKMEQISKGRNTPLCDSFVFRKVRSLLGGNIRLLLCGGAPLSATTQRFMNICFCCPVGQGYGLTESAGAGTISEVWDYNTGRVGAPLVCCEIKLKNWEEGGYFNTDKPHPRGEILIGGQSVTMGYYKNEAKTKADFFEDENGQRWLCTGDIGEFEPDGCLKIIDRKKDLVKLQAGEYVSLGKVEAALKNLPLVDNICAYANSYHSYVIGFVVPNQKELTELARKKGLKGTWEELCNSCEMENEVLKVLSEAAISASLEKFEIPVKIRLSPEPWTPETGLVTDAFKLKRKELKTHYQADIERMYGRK
# ± gives the standard deviation of the averaged measurements. Only a part is listed here, and it is no random draw.
# Compound: Nc1ncnc2c1ncn2[C@@H]1O[C@H](COP(=O)(O)OP(=O)(O)NP(=O)(O)O)[C@@H](O)[C@H]1O [adenylyl imidodiphosphate]
# Assay: NP40-soluble protein abundance relative to vehicle (solubility fold change) (ratio); higher = more soluble protein in presence of AMP-PNP
# Summary of the method: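 Eight concentrations, 0.1 to 10 mM, were tested on Jurkat crude lysate for 10 min at room temperature and then 3 min at 37 °C, in three independent experiments. The lysate was solubilised with 0.8% NP40 and benzonase, ultracentrifuged, and the supernatant TMT-labelled for LC-MS/MS. Each value is the fold change against the detergent-processed vehicle in its own replicate, from vsn-normalised intensities.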
Target,NP40-soluble protein abundance (concentration: 1mM),NP40-soluble protein abundance (concentration: 2mM),NP40-soluble protein abundance (concentration: 4mM),NP40-soluble protein abundance (concentration: 6mM),NP40-soluble protein abundance (concentration: 8mM),NP40-soluble protein abundance (concentration: 10mM)
GGCT (UniProt O75223),0.9982 ± 0.0093,1.04 ± 0.077,0.993 ± 0.021,1.08 ± 0.059,1.04 ± 0.073,1.08 ± 0.06
UniProt O95251 and related entries,1.11 ± 0.031,1.17 ± 0.06,1.18 ± 0.063,1.2 ± 0.073,1.25 ± 0.077,1.36 ± 0.088
UniProt O75808 and related entries,1.02 ± 0.024,1.01 ± 0.018,1 ± 0.039,1 ± 0.021,1.009 ± 0.0052,0.9828 ± 0.0012
CIAO1 (UniProt O76071),1.02 ± 0.021,0.986 ± 0.024,1.01 ± 0.053,1.01 ± 0.044,1 ± 0.021,0.978 ± 0.028
UniProt O60763 and related entries,1.01 ± 0.015,1.03 ± 0.02,0.982 ± 0.016,0.9911 ± 0.0093,0.959 ± 0.011,0.975 ± 0.03
CPD (UniProt O75976),0.982 ± 0.015,1.04 ± 0.049,0.977 ± 0.017,0.9756 ± 0.0083,0.955 ± 0.025,0.998 ± 0.021
SMARCA5 (UniProt O60264),1.03 ± 0.038,1.04 ± 0.019,1.11 ± 0.083,1.21 ± 0.073,1.25 ± 0.098,1.26 ± 0.12
UniProt O95219 and related entries,1.02 ± 0.014,1.02 ± 0.011,1.02 ± 0.04,1.01 ± 0.015,0.97 ± 0.029,0.98 ± 0.035
SNX2 (UniProt O60749),0.993 ± 0.033,0.998 ± 0.038,0.983 ± 0.018,0.99 ± 0.0069,0.966 ± 0.028,0.974 ± 0.015
UniProt O60343 and related entries,1.03 ± 0.038,0.982 ± 0.031,0.994 ± 0.015,0.989 ± 0.018,0.979 ± 0.011,0.977 ± 0.02
UniProt O75928 and related entries,1 ± 0.034,1.01 ± 0.022,0.959 ± 0.037,0.986 ± 0.049,0.959 ± 0.029,0.989 ± 0.031
RBBP9 (UniProt O75884),1.01 ± 0.024,1.01 ± 0.035,0.98 ± 0.035,0.967 ± 0.028,0.98 ± 0.043,0.97 ± 0.029
UniProt O94762 and related entries,1 ± 0.05,1.03 ± 0.093,1 ± 0.041,1.02 ± 0.041,1.02 ± 0.058,1.01 ± 0.071
MAST3 (UniProt O60307),1.01 ± 0.022,0.978 ± 0.011,0.9881 ± 0.00048,1.002 ± 0.01,1.016 ± 0.00092,1.02 ± 0.00096
UniProt O60287 and related entries,1.01 ± 0.02,1.03 ± 0.039,1.07 ± 0.043,1.14 ± 0.058,1.19 ± 0.059,1.22 ± 0.076
UniProt O75558,1.01 ± 0.041,1.01 ± 0.013,1.02 ± 0.027,1.002 ± 0.007,0.989 ± 0.035,0.9879 ± 0.0066
UniProt O94887 and related entries,0.993 ± 0.044,1.02 ± 0.0093,0.979 ± 0.053,0.951 ± 0.031,0.959 ± 0.0022,0.961 ± 0.039

# An excerpt of these results, with tabs.
Target	NP40-soluble protein abundance (concentration: 1mM)	NP40-soluble protein abundance (concentration: 2mM)	NP40-soluble protein abundance (concentration: 4mM)	NP40-soluble protein abundance (concentration: 6mM)	NP40-soluble protein abundance (concentration: 8mM)	NP40-soluble protein abundance (concentration: 10mM)
UniProt O95219 and related entries	1.02 ± 0.014	1.02 ± 0.011	1.02 ± 0.04	1.01 ± 0.015	0.97 ± 0.029	0.98 ± 0.035
SNX2 (UniProt O60749)	0.993 ± 0.033	0.998 ± 0.038	0.983 ± 0.018	0.99 ± 0.0069	0.966 ± 0.028	0.974 ± 0.015
UniProt O60343 and related entries	1.03 ± 0.038	0.982 ± 0.031	0.994 ± 0.015	0.989 ± 0.018	0.979 ± 0.011	0.977 ± 0.02
UniProt O75928 and related entries	1 ± 0.034	1.01 ± 0.022	0.959 ± 0.037	0.986 ± 0.049	0.959 ± 0.029	0.989 ± 0.031
RBBP9 (UniProt O75884)	1.01 ± 0.024	1.01 ± 0.035	0.98 ± 0.035	0.967 ± 0.028	0.98 ± 0.043	0.97 ± 0.029
UniProt O94762 and related entries	1 ± 0.05	1.03 ± 0.093	1 ± 0.041	1.02 ± 0.041	1.02 ± 0.058	1.01 ± 0.071
MAST3 (UniProt O60307)	1.01 ± 0.022	0.978 ± 0.011	0.9881 ± 0.00048	1.002 ± 0.01	1.016 ± 0.00092	1.02 ± 0.00096
UniProt O60287 and related entries	1.01 ± 0.02	1.03 ± 0.039	1.07 ± 0.043	1.14 ± 0.058	1.19 ± 0.059	1.22 ± 0.076
UniProt O75558	1.01 ± 0.041	1.01 ± 0.013	1.02 ± 0.027	1.002 ± 0.007	0.989 ± 0.035	0.9879 ± 0.0066

# (listing goes on)

Target,NP40-soluble protein abundance (concentration: 1mM),NP40-soluble protein abundance (concentration: 2mM),NP40-soluble protein abundance (concentration: 4mM),NP40-soluble protein abundance (concentration: 6mM),NP40-soluble protein abundance (concentration: 8mM),NP40-soluble protein abundance (concentration: 10mM)
RNASEH2A (UniProt O75792),0.987 ± 0.032,0.947 ± 0.08,0.934 ± 0.053,0.94 ± 0.024,0.933 ± 0.038,0.913 ± 0.048
NADK (UniProt O95544),1.01 ± 0.039,0.993 ± 0.014,1.03 ± 0.024,1.08 ± 0.026,1.06 ± 0.035,1.1 ± 0.025
UniProt O60711 and related entries,1.061 ± 0.0069,1.1 ± 0.024,1.07 ± 0.032,1.01 ± 0.013,1.03 ± 0.016,1.02 ± 0.043
UniProt O60499 and related entries,1.06 ± 0.038,1.06 ± 0.05,1.03 ± 0.065,1.02 ± 0.013,1.04 ± 0.026,0.972 ± 0.022
CDC123 (UniProt O75794),1.01 ± 0.075,1.02 ± 0.064,1.03 ± 0.046,1.06 ± 0.046,1.07 ± 0.037,1.03 ± 0.056
UniProt O94766 and related entries,0.964 ± 0.06,0.983 ± 0.055,0.994 ± 0.077,0.971 ± 0.048,0.994 ± 0.075,0.961 ± 0.11
TOX (UniProt O94900),0.962 ± 0.081,1.04 ± 0.15,0.953 ± 0.08,1.04 ± 0.044,0.994 ± 0.06,1.01 ± 0.047
SGPL1 (UniProt O95470),0.965 ± 0.043,0.92 ± 0.04,0.959 ± 0.026,1.02 ± 0.062,1.053 ± 0.0094,1.04 ± 0.035
UniProt O60879-2|C9J6U3,0.9746 ± 0.0015,0.9924 ± 0.009,0.9751 ± 0.0032,0.96 ± 0.027,0.936 ± 0.023,0.952 ± 0.028
UniProt O75081 and related entries,1 ± 0.031,1.03 ± 0.015,1.02 ± 0.02,1.05 ± 0.035,1.03 ± 0.05,1.03 ± 0.042
UniProt O75306 and related entries,0.952 ± 0.024,0.91 ± 0.12,0.945 ± 0.028,0.946 ± 0.037,0.939 ± 0.032,0.914 ± 0.065
UniProt O95453 and related entries,1.02 ± 0.018,0.975 ± 0.042,0.9979 ± 0.0039,0.991 ± 0.026,0.997 ± 0.016,0.968 ± 0.013
RAB3D (UniProt O95716),0.994 ± 0.039,0.981 ± 0.039,1.02 ± 0.039,1.01 ± 0.016,1.04 ± 0.041,1 ± 0.024
ZNF217 (UniProt O75362),1.02 ± 0.043,1.09 ± 0.031,1.06 ± 0.013,1.02 ± 0.064,1.01 ± 0.058,1.04 ± 0.021
SNUPN (UniProt O95149),0.983 ± 0.038,0.946 ± 0.034,1 ± 0.059,1.01 ± 0.04,1.05 ± 0.045,1.04 ± 0.031
ACSL3 (UniProt O95573),1.01 ± 0.05,0.976 ± 0.079,1.01 ± 0.075,0.987 ± 0.036,1 ± 0.068,0.968 ± 0.057
UniProt O75787 and related entries,1.045 ± 0.0093,1.03 ± 0.02,1.02 ± 0.029,1.01 ± 0.024,1 ± 0.045,1.05 ± 0.076
